In paper PMC7819943, “Rice protein-binding microarrays: a tool to detect cis-acting elements near promoter regions in rice”:
The list shows a part of the results.

Sequences of proteins named here, by UniProt entry; tags and fusion partners are left off.
UniProt Q0JBA9, entry or part of it: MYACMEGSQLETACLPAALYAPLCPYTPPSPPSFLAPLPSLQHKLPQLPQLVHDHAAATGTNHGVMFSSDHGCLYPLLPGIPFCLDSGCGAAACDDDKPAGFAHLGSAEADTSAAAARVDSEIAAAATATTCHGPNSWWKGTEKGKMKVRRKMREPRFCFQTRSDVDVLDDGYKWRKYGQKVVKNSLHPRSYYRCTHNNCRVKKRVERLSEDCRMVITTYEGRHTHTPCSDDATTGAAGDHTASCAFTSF

Target: OsWRKY34 (Oryza sativa, UniProt Q0JBA9 1-250)
Assay: protein-binding microarray (RPBM); PBS, 2% BSA, 51.3 ng/ul salmon testes DNA, 50 uM zinc acetate, 200 nM TF, 25 C, 1 h; high values mean tight binding
Conditions: protein: recombinant; tags: N-terminal polyhistidine and DsRed monomer fusion (pET32a); label: CyDye5-dUTP incorporated in the synthesized complementary strand; 3' TTTTT single-stranded linker to array surface; dsDNA, one strand shown
In short: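 Binding signal is defined as the fluorescence intensity of each feature in arbitrary units, read on an Axon 4000B scanner. Transcription factors with N-terminal polyhistidine and DsRed fusions came from E. coli BL21-CodonPlus and were purified on Ni–NTA. They were incubated at 200 nM for 1 h at 25 °C on a custom Agilent array that had been made double-stranded with Cy5-dUTP, with 50 µM zinc acetate present, and the array was washed.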

| Sequence | binding signal |
| --- | --- |
| GGCCCAATTTTGTGAGCCCAAACTTCTCGCGTGTCCTTCTCGGAGTCACCTAGTGCAG | 9600 fluorescence intensity (a.u.) |
| ACTACAGAGTTATGGTGGATTTTGTGCTGTTACCTATTTGCGGAGTCACCTAGTGCAG | 8420 fluorescence intensity (a.u.) |
| CAGCCTCTTGTTTCTCTGCCTTTTTAGTCCATCGCCTGACCGGAGTCACCTAGTGCAG | 16000 fluorescence intensity (a.u.) |
| GTCCTTTACACTGATCCTGCACATCGCTCACTGTTTTCTTCGGAGTCACCTAGTGCAG | 16800 fluorescence intensity (a.u.) |
| GAGATCGTTATCCTTTACATGTCATTTGTTAGTTGGCATTCGGAGTCACCTAGTGCAG | 8970 fluorescence intensity (a.u.) |
| AAAAATATATCCAAGCAAATTCACACAGTCAAGTTCACTCCGGAGTCACCTAGTGCAG | 14800 fluorescence intensity (a.u.) |
| ATTTTAATCGCGTTCGTATATGTTCTGTGAGAATAGTTTCCGGAGTCACCTAGTGCAG | 10800 fluorescence intensity (a.u.) |
| CGTTTCCGTCTCCGCCCGCCCGCCCGCCGTCGTGCGCGCCCGGAGTCACCTAGTGCAG | 13100 fluorescence intensity (a.u.) |
| CTTTTTTATTGATGCTCCAACCTAGTTTCACATTTGATTTCGGAGTCACCTAGTGCAG | 8510 fluorescence intensity (a.u.) |
| CGTGTGGGTGGGTGGGTGGAGTGGACTGGTTTCTGTGAGCCGGAGTCACCTAGTGCAG | 18500 fluorescence intensity (a.u.) |
| ACCGTCAACGACCGTTGACTGCGCCACAATCAAGCACAGTCGGAGTCACCTAGTGCAG | 8050 fluorescence intensity (a.u.) |
| AAGAGTACGGGTGGGGATGCTTTGGAGTTCACTCCAACTCCGGAGTCACCTAGTGCAG | 10300 fluorescence intensity (a.u.) |
| GGCCATTGCTGACCTGCTGCCTCTACCTGCTTCTTCCTCACGGAGTCACCTAGTGCAG | 9990 fluorescence intensity (a.u.) |
| TAGATCATCATTTCGTTCGTCACAGCCTTGTACAATCTTCCGGAGTCACCTAGTGCAG | 9200 fluorescence intensity (a.u.) |
| GTCTTTTGATTCTTGACTGCAGACCAATTTCTGTATTCCACGGAGTCACCTAGTGCAG | 10400 fluorescence intensity (a.u.) |
| TTTCCCCTATGCACCGAGTGGTTCGGTTGTACCTTATTTTCGGAGTCACCTAGTGCAG | 8670 fluorescence intensity (a.u.) |
| TCATCCTATTTCGTTTTTTTTTTTACTCTTTTACCCTCCGCGGAGTCACCTAGTGCAG | 10300 fluorescence intensity (a.u.) |
| AACACACTTACCTACCACTACCGGGCACCACAGACTACTCCGGAGTCACCTAGTGCAG | 9820 fluorescence intensity (a.u.) |
| AGGTACTATGGGCTTAACTTTCCTCGGTTGCCCAGCAACTCGGAGTCACCTAGTGCAG | 8180 fluorescence intensity (a.u.) |
| GGGTCGTTTTTTTGGCGGTTAAATTATCTGGGTCTGTTCGCGGAGTCACCTAGTGCAG | 13500 fluorescence intensity (a.u.) |
| ACACACACATATATACTTTTTTCTTGGTGTATTAGTAAGCCGGAGTCACCTAGTGCAG | 8460 fluorescence intensity (a.u.) |

| Sequence | binding signal |
| --- | --- |
| TATACTTTTTTTTGGGGTAAAGTTGTCAAAAGTGTCTATACGGAGTCACCTAGTGCAG | 8640 fluorescence intensity (a.u.) |
| TTCTACTCTCCCACTCCTCTCTAACCACTGTACTATATACCGGAGTCACCTAGTGCAG | 8610 fluorescence intensity (a.u.) |
| GCCCCGTGCCCATGCTGATTCCACCACCTCCCTGTAATCCCGGAGTCACCTAGTGCAG | 8100 fluorescence intensity (a.u.) |
| CCAATCACGTCCCACCGAATCGCCACGTCAGCTCTGGTCCCGGAGTCACCTAGTGCAG | 9010 fluorescence intensity (a.u.) |
| TGTGTCTCTTTCACAGCGACACCCGCCCTTGTTGCGTTGCCGGAGTCACCTAGTGCAG | 8120 fluorescence intensity (a.u.) |
| CTCTGGTTTTGTTTTCCAAGTTTCCTGCATTCCCGGATATCGGAGTCACCTAGTGCAG | 9340 fluorescence intensity (a.u.) |
| TCAGGTTATGCTCTACCAAGTTGGACTTTTTTTAGTTATACGGAGTCACCTAGTGCAG | 8690 fluorescence intensity (a.u.) |
| GCTCTCTCTCTCTCTCTCCCGCCGCCGCGCCAACCACCTCCGGAGTCACCTAGTGCAG | 12600 fluorescence intensity (a.u.) |
| AACTAAACTCGGCCATACTCTCATCCAGGTTGGAAGAATTCGGAGTCACCTAGTGCAG | 8290 fluorescence intensity (a.u.) |
| ATTTTGTGGGGTCAAGGTCGTCTCCGCTGCAATGGCGGTCCGGAGTCACCTAGTGCAG | 9470 fluorescence intensity (a.u.) |
| GAACGGTTCAGTTATTCAGTTCTCGTTTTGGGGTGCGTGCCGGAGTCACCTAGTGCAG | 8070 fluorescence intensity (a.u.) |
| TCCACTCCACCACCACCACCAACATCGCACAGTCAGTCACCGGAGTCACCTAGTGCAG | 10800 fluorescence intensity (a.u.) |
| TGCACCGGTGCAAGTGTGGGAGGGGTGTTGTACGTCGCTACGGAGTCACCTAGTGCAG | 10400 fluorescence intensity (a.u.) |
| ACCGGCAGGGCAACTTCGGTCAGACCGCGATCCGTCGATTCGGAGTCACCTAGTGCAG | 8600 fluorescence intensity (a.u.) |
| CCATGGATTTCACTCTATATCCTGTTCTCTTTAATCATTCCGGAGTCACCTAGTGCAG | 10200 fluorescence intensity (a.u.) |
| ATCCTTGTTAGTTACATGCATGTGTATAGTTTATTAATTTCGGAGTCACCTAGTGCAG | 10700 fluorescence intensity (a.u.) |
| GATGGTGTGTTTTTATTTTCCTTTTTGTTTTCTTGATTATCGGAGTCACCTAGTGCAG | 10300 fluorescence intensity (a.u.) |
| TGCTCTCTGCTGCTGTTGTGCAGTCCAGTCAAGAACCGACCGGAGTCACCTAGTGCAG | 8140 fluorescence intensity (a.u.) |
| TAGTTATGATTCGGTTACTTTTTTTTAGTTTTGAACCTTTCGGAGTCACCTAGTGCAG | 8510 fluorescence intensity (a.u.) |
| CTGTTGTTCGACGCTTGGAGCTCCTCGTGCTCACGTTTCACGGAGTCACCTAGTGCAG | 8030 fluorescence intensity (a.u.) |
| GCCTCTTCTGATCTTCTCCTCTGTATTATGGTGCTTTCACCGGAGTCACCTAGTGCAG | 16100 fluorescence intensity (a.u.) |

Given with tabs: entries from further up
Sequence	binding signal
TTCTACTCTCCCACTCCTCTCTAACCACTGTACTATATACCGGAGTCACCTAGTGCAG	8610 fluorescence intensity (a.u.)
GAACGGTTCAGTTATTCAGTTCTCGTTTTGGGGTGCGTGCCGGAGTCACCTAGTGCAG	8070 fluorescence intensity (a.u.)
